Structures can show the parent of a compound that is named as a salt. In all, about 5,300 compounds went through this assay and about 130 (2.5%) showed an effect of 50% or more. This is one part of the list.
system: M. mycetomatis strain mm55; details: primary screen, metabolic activity vs growth control; 96 h, 2 µM; inhibitor

| SMILES | % viability [%] |
| --- | --- |
| CC(=O)N(CC(O)CN(C(C)=O)c1c(I)c(C(=O)NCC(O)CO)c(I)c(C(=O)NCC(O)CO)c1I)c1c(I)c(C(=O)NCC(O)CO)c(I)c(C(=O)NCC(O)CO)c1I (stereo not shown) [ONC0004142, iodixanol] | 136.3 |
| NC(=O)NS(=O)(=O)c1ccc(N)cc1 [ONC0005380, sulfacarbamide] | 111.9 |
| C[C@@H]1CN(Cc2ccc(F)cc2)[C@@H](C)CN1C(=O)c1cc2c(C(=O)C(=O)N(C)C)cn(C)c2cc1Cl [ONC0002696, talmapimod] | 73.55 |
| C=CC(=O)Nc1cccc(Oc2nc(Nc3ccc(N4CCN(C)CC4)cc3)nc3ccsc23)c1 [ONC0001325, olmutinib] | 84.69 |
| O=C1CCCC(=O)C1C(=O)c1ccc(C(F)(F)F)cc1[N+](=O)[O-] [ONC0002397, nitisinone] | 105.1 |
| CC(C(=O)O)c1ccc(C(=O)c2ccccc2)s1 (stereo not shown) [ONC0005409, tiaprofenicacid] | 96.41 |
| Fc1ccc(CN2CCC(Nc3ccc(C(F)(F)F)nn3)CC2)cc1F [ONC0003766, jnj37822681] | 83.83 |
| NC(CC(F)C(=O)O)C(=O)O (stereo not shown) [ONC0003677, 4fluorodlglutamic acid] | 63.49 |
| c1nc(CC2CCNCC2)c[nH]1 [ONC0002513, immepip] | 60.16 |
| O=C(O)C1=CCCN(CCON=C(c2ccccc2)c2ccccc2)C1 [ONC0002475, nnc711] | 101.1 |
| O=C1O[C@@H](CO)[C@H](O)[C@@H](O)[C@@H]1O [ONC0003123, gluconolactone] | 67.77 |
| COc1cc(/C=C/C(=O)N2CCCCCCC2)cc(OC)c1OC [ONC0005326, cinoctramide] | 67.25 |
| CN(C)CC/C=C1/c2ccccc2COc2ccc(CC(=O)O)cc21 [ONC0004990, olopatadine hydrochloride opatanol] | 101 |
| CC[C@H](C)C[C@H](C)CCCCCCCCC(=O)N[C@H]1C[C@@H](O)[C@@H](NCCN)NC(=O)[C@@H]2[C@@H](O)CCN2C(=O)[C@H]([C@H](O)CCN)NC(=O)[C@H]([C@H](O)[C@@H](O)c2ccc(O)cc2)NC(=O)[C@@H]2C[C@@H](O)CN2C(=O)[C@H]([C@@H](C)O)NC1=O [ONC0004327, caspofungin acetate] | 124.4 |
| CN(C)Cc1ccc(S(=O)(=O)n2ccc(/C=C/C(=O)NO)c2)cc1 [ONC0005234, resminostat ras2410] | 190.8 |
| O=S(=O)(O)CC(S)CS (stereo not shown) [ONC0002911, dmps] | 98.97 |

Quoted from the listing:
% viability [%], C[C@@H]1CN(Cc2ccc(F)cc2)[C@@H](C)CN1C(=O)c1cc2c(C(=O)C(=O)N(C)C)cn(C)c2cc1Cl [ONC0002696, talmapimod] reads 73.55
% viability [%], NC(=O)NS(=O)(=O)c1ccc(N)cc1 [ONC0005380, sulfacarbamide] reads 111.9
